This passage reports binding results from article PMC8443744.

Sequences of proteins named here, by UniProt entry; tags and fusion partners are left off.
UniProt Q14145: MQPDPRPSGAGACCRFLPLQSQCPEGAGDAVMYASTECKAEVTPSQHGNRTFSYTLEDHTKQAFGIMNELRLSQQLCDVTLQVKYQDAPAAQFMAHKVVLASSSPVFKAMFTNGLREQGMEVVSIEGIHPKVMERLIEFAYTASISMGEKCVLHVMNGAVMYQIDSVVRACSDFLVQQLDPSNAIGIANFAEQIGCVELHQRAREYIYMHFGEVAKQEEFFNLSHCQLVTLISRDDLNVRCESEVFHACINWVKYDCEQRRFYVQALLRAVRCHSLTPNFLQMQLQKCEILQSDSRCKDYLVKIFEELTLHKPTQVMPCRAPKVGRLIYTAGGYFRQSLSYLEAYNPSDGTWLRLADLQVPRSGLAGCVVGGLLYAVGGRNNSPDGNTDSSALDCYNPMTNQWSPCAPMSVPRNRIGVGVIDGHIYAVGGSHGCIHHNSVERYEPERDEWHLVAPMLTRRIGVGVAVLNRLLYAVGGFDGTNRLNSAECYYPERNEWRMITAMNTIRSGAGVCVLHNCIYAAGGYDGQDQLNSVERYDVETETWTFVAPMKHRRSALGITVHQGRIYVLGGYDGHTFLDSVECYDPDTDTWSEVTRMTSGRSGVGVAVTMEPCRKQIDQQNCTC
UniProt O95602: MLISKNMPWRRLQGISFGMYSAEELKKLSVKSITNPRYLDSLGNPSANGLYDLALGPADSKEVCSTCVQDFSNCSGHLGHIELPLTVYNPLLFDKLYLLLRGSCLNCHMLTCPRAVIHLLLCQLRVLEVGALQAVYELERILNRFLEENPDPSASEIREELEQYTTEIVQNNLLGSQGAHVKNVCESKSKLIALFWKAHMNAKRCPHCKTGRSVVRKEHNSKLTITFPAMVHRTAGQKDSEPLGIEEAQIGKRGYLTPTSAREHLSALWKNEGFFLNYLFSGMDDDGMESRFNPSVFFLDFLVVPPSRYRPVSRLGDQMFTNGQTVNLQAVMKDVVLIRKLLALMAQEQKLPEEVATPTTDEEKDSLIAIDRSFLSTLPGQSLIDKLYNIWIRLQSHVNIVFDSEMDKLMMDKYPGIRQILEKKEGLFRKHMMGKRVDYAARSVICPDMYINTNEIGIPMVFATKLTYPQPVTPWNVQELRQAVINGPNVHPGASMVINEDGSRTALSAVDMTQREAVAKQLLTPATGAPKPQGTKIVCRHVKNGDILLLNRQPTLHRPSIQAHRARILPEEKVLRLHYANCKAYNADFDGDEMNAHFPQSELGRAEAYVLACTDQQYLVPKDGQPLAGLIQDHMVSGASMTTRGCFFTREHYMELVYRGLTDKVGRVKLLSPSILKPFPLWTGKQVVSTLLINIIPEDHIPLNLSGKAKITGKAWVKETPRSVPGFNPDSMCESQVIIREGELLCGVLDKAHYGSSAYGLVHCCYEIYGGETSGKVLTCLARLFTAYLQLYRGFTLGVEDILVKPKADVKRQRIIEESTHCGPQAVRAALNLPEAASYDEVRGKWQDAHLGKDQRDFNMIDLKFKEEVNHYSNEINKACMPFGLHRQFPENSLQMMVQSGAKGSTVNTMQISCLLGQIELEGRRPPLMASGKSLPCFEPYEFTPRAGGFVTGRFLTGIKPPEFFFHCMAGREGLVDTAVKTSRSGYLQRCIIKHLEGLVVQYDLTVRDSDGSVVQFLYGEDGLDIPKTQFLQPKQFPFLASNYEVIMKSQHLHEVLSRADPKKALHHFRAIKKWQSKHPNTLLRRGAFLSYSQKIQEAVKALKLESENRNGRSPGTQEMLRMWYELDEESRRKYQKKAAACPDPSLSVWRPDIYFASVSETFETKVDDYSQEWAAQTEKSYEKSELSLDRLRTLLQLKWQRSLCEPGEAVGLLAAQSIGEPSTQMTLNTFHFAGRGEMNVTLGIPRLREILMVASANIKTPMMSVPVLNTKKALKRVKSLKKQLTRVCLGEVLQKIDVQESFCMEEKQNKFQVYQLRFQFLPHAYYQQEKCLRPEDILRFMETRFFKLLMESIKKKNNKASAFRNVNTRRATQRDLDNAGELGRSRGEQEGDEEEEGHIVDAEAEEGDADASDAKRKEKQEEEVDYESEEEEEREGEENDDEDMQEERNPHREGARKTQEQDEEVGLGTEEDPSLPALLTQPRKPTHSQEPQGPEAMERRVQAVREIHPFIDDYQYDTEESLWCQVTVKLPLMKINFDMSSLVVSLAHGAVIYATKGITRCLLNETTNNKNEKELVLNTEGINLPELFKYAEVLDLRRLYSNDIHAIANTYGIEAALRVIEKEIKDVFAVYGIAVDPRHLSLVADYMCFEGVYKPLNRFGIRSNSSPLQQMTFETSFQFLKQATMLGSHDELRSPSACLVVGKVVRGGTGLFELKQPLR

No constants are given. Whether binding was seen depends on the method and setting. Binding seen in cells or lysates may run through a third protein. Some entries that bind do so weakly or less than the wild type. For some assays here: Where a sequence is shown, tags or fusion partners need not be part of it.

Experiment [1] deals with senataxin (SETX), endogenous (human (endogenous in MRC-5)) (UniProt Q7Z333). The experiment can be described thus: proximity ligation; Duolink PLA in methanol-fixed MRC-5 cells with antibodies against the two endogenous proteins; cells mock treated (DMSO), 25 uM CPT for 10 min, or 50 uM alpha-amanitin overnight followed by CPT.
For experiment [2], the target named is T1, eGFP-SETX^1–667 (human) (UniProt Q7Z333).
T1 sequence: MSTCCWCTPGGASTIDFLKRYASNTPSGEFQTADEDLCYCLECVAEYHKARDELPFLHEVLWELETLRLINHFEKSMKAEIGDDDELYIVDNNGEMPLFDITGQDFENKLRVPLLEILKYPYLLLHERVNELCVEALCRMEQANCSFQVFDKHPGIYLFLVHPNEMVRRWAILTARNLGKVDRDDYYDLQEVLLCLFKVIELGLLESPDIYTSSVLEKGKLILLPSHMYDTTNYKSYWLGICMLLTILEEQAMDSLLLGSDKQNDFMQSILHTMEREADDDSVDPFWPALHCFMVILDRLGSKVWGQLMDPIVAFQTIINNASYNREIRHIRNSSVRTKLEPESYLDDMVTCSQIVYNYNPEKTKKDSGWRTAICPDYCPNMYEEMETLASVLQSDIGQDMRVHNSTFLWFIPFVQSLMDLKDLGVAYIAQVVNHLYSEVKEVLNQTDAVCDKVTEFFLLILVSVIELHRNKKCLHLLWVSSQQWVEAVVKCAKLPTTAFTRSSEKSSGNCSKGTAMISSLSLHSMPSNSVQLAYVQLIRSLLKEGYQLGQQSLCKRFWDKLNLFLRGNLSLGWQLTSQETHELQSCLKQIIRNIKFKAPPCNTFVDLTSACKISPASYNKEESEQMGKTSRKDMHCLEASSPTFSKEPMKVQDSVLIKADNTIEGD
The experiment can be described thus: co-IP; GFP pull-down with GFP-Trap_MA beads from HEK-293 lysates expressing eGFP-SETX 1-667 or empty vector-eGFP; 10 mM Tris-HCl pH 7.5, 150 mM NaCl, 0.5 mM EDTA, 2 h at 4 C; immunoblotting. (Immunoblotting shows a protein as a band on a membrane.)

For “KEAP1, endogenous (from UniProt Q14145 1-624)”, the binding result in experiment [1] is recorded as “binds”.
With “largest subunit of RNA polymerase I (RPA-194), endogenous (from UniProt O95602 1-1720)”, the binding entry in experiment [2] is “binds”.
